According to PubChem BioAssay AID901 (National Center for Advancing Translational Sciences (NCATS), 2007):
The list shows a part of the results. Further columns of the screen follow, without active or inactive calls. Compounds called inactive in the main read-out are mostly missing here. Potencies come from curve fits of mixed quality, noted in brackets.

Experiment: qHTS Assay for Identifying the Cell-Membrane Permeable IMPase Inhibitors
Settings: CHO-M1 cells, IP1 accumulation, HTRF TR-FRET ratio; measured here: donor channel 620 nm AC50

Row | SMILES | AC50
1 | CCCc1cc(=O)[nH]c(SC(CC)C(=O)Nc2ccccc2C#N)n1 (stereo unspecified) | 2.51 µM [rising, single point]
2 | COc1cccc(NC(=O)CN2CCN(c3ccc(F)cc3)CC2)c1 | 0.501 µM [rising, full curve, poor fit]
3 | CCc1c(C(=O)O)[nH]c2ccc(Br)cc12 | 10 µM [rising, partial curve]
4 | O=C(c1cccc(S(=O)(=O)N2CCOCC2)c1)N1CCCCCC1 | 31.6 µM [rising, partial curve, poor fit]
5 | Cn1c(SC2C(=O)CC(C)(C)CC2=O)nnc1-c1ccco1 | 31.6 µM [rising, single point]
6 | COc1cccc(-c2cc(C(F)(F)F)n3nc(N)nc3n2)c1 | 0.01 µM [falling, full curve]
7 | Cc1cccc(OC(C)c2ccnc3nc(/N=C/N(C)C)nn23)c1 (stereo unspecified) | 0.0158 µM [rising, full curve, poor fit]
8 | CCOC(=O)CSc1nc(-c2ccc(OC)cc2)cc(C(F)(F)F)c1C#N | 22.4 µM [rising, single point]
9 | Cc1nc2ccccc2nc1SCC(=O)c1ccccc1 | 20 µM [rising, partial curve]
10 | CCOc1ccc(Br)cc1S(=O)(=O)Nc1ccc(C(=O)OC(C)C(=O)N(C)c2ccccc2)cc1 (stereo unspecified) | 0.00501 µM [falling, full curve, poor fit]
11 | CC1(C)CC(=O)N(CC(=O)O)c2ccccc2S1 | 0.01 µM [rising, full curve, poor fit]
12 | Cc1ccc(-n2c(=S)[nH]c3c(oc4ccccc43)c2=O)cc1C | 12.6 µM [rising, partial curve]
13 | O=c1c2cccc3c2c(nn1-c1ccccc1)-c1ccccc1-3 | 15.8 µM [rising, single point]
14 | CC(=C/c1ccccc1)/C=C1/SC(N2CCOCC2)=NC1=O | 25.1 µM [falling, single point]
15 | O=C(O)c1cccc(-n2cnnn2)c1 | 7.94 µM [falling, full curve, poor fit]
16 | Cc1ccc2c(c1)c(=O)c1ccccc1n2CCCC(=O)Nc1cc(Cl)ccc1C | 5.62 µM [rising, single point]
17 | Cc1nnc(NC(=O)c2c(F)cccc2F)s1 | 0.794 µM [falling, full curve, poor fit]
18 | Cn1c(=O)[nH]c(=O)c2c1nc(Sc1ncccn1)n2CCCc1ccccc1 | 1 µM [falling, partial curve, poor fit]
19 | CCOc1cc2[nH]c(=O)n(CCc3ccc(OC)c(OC)c3)c(=O)c2cc1OCC | 0.794 µM [rising, full curve, poor fit]
20 | CN1CCN(c2c(F)cc3c(=O)c(C(=O)O)cn4c3c2SCC4)CC1 | 15.8 µM [rising, partial curve]
21 | CCN1CCCC1CNC(=O)C1CCN(Cc2nc(-c3cccc(Br)c3)oc2C)CC1 (stereo unspecified) | 1.26 µM [rising, full curve, poor fit]
22 | O=C(CCCn1c(SCC(=O)NC2CCCCC2)nc2ccccc2c1=O)NCC1CCCO1 (stereo unspecified) | 0.0316 µM [rising, full curve, poor fit]

A different layout for some results above:
Row	SMILES	AC50
4	O=C(c1cccc(S(=O)(=O)N2CCOCC2)c1)N1CCCCCC1	31.6 µM [rising, partial curve, poor fit]
5	Cn1c(SC2C(=O)CC(C)(C)CC2=O)nnc1-c1ccco1	31.6 µM [rising, single point]
6	COc1cccc(-c2cc(C(F)(F)F)n3nc(N)nc3n2)c1	0.01 µM [falling, full curve]

(further entries)

Row | SMILES | AC50
23 | COCCn1c(N)c(C(=O)OCc2ccccc2)c2nc3ccccc3nc21 | 7.94 µM [rising, partial curve, poor fit]
24 | Nc1ncnc2oc(-c3ccco3)c(-c3ccco3)c12 | 2 µM [rising, single point]
25 | COc1ccc2[nH]c(C)c(C(=O)CN3CCN(C/C=C/c4ccccc4)CC3)c2c1 | 0.631 µM [rising, full curve, poor fit]
26 | Cc1ccc(N2CC(C(=O)NCCC(C)C)CC2=O)cc1 (stereo unspecified) | 0.1 µM [falling, full curve, poor fit]
27 | O=C(C1CCCCN1S(=O)(=O)c1ccccc1)N1CCN(C(c2ccccc2)c2ccccc2)CC1 (stereo unspecified) | 0.01 µM [falling, full curve, poor fit]
28 | COC(=O)c1ccccc1NC(=O)C(C)Oc1ccccc1 (stereo unspecified) | 1 µM [falling, full curve]
29 | CC(=O)c1cccc(N(C(=O)c2ccccn2)C(C(=O)NC2CCCCC2)c2cccs2)c1 (stereo unspecified) | 0.251 µM [falling, full curve, poor fit]
30 | Cc1cc(N2CCN(Cc3ccc4c(c3)OCO4)CC2)n2ncnc2n1 | 0.2 µM [falling, full curve]
31 | COC(=O)c1c(CSc2cccc(C)c2)noc1C(=O)NCc1ccco1 | 5.01 µM [falling, full curve, poor fit]
32 | Cc1ccc(-c2nc3ncccn3c2Nc2ccc3c(c2)OCCO3)o1 | 2 µM [falling, full curve]
33 | COc1ccc(-n2c(SCC(N)=O)nnc2-c2cccnc2)cc1 | 1 µM [falling, full curve]
34 | O=S(=O)(c1cccs1)N1CN(Cc2ccccc2)c2nc3ccccc3nc21 | 0.398 µM [rising, full curve, poor fit]
35 | CCn1c(=O)cc(SCC(=O)NCc2cccnc2)c2ccccc21 | 7.94 µM [rising, partial curve, poor fit]
36 | CN(C)c1ccc(-c2nc3n(n2)C(c2cccnc2)C2=C(CC(C)(C)CC2=O)N3)cc1 (stereo unspecified) | 10 µM [falling, partial curve, poor fit]
37 | CC(=O)C1=C(O)C(=O)N(c2ccc(C)cc2)C1c1ccccn1 (stereo unspecified) | 12.6 µM [rising, partial curve]
38 | Cc1cccc(-c2nc(S(=O)(=O)c3ccc(Cl)cc3)c(N3CCCCCC3)o2)c1 | 0.794 µM [falling, full curve]
39 | O=C(c1cnc2n(c1=O)CCS2)N1CCN(c2ccc([N+](=O)[O-])cc2)CC1 | 0.224 µM [falling, full curve, poor fit]
40 | CON/C=C(\C=Nc1ccc(C(F)(F)F)cc1)c1ncc(C(F)(F)F)cc1Cl | 5.01 µM [rising, single point]
41 | Cc1cc(=O)n2nc(N3CCC(C(=O)NCc4cccnc4)CC3)sc2n1 | 31.6 µM [rising, single point]
42 | C=CCN(CC=C)S(=O)(=O)c1ccc2nsnc2c1 | 3.98 µM [falling, partial curve]
43 | Cc1ccc(-n2nc(C)c3c2OC(N)=C(C#N)C3c2ccco2)cc1 (stereo unspecified) | 31.6 µM [falling, single point]
44 | C=CCn1c(SCC(=O)Nc2sccc2C#N)nc2sc(C)c(C)c2c1=O | 15.8 µM [rising, single point]

Row | SMILES | AC50
45 | CCOC(=O)/C(C#N)=C\c1c(C)cc(C)c(COC(C)=O)c1C | 25.1 µM [falling, single point]
46 | COc1ccccc1NC(=S)NNC(=O)c1nn(C)cc1Cl | 0.01 µM [falling, full curve, poor fit]
47 | FC(F)(F)c1cccc(-c2cc3ccccc3nc2N2CCCC2)c1 | 0.00501 µM [falling, full curve]
48 | COC(=O)Cc1c(C)c2c(O)cc(C)cc2oc1=O | 12.6 µM [rising, partial curve]
49 | CCOC(=O)c1nn(-c2cccc(C)c2)c2nc(-c3ccccc3)c(C#N)c(=O)n12 | 12.6 µM [rising, single point]
50 | COc1ccccc1NC(=O)CSc1ncn[nH]1 | 0.00501 µM [falling, full curve, poor fit]
51 | CCS(=O)(=O)C(=C(Nc1ccc(OC)cc1)Nc1ccc(OC)cc1)S(=O)(=O)CC | 1.26 µM [falling, full curve, poor fit]
52 | Cc1ccc(C(=O)NNC(=S)Nc2cccc3ccccc23)s1 | 3.16 µM [falling, single point]
53 | Cc1ccc(NC(=O)CSCC(=O)N2CCOCC2)cc1 | 0.158 µM [falling, full curve]
54 | O=C(O)c1cc(Nc2nc(N3CCOCC3)nc(N3CCOCC3)n2)ccc1Cl | 0.251 µM [falling, single point]
55 | CCOC(=O)c1c(Nc2ccc(O)cc2)nnc(-c2ccccc2)c1-c1ccccc1 | 20 µM [rising, single point]
56 | COC(=O)c1ccc(C2c3c(oc4ccc(C)cc4c3=O)C(=O)N2Cc2ccc3c(c2)OCO3)cc1 (stereo unspecified) | 1.26 µM [falling, partial curve, poor fit]
57 | Cc1ccccc1Nc1c(N)c(=O)oc2ccccc12 | 0.708 µM [rising, full curve, poor fit]
58 | O=C1c2ccccc2C(Nc2ccc(F)cc2F)N1CCN1CCOCC1 (stereo unspecified) | 15.8 µM [falling, partial curve, poor fit]
59 | Cc1cc(=O)oc2cc(NC(=O)CCC(=O)O)ccc12 | 5.01 µM [falling, single point]
60 | O=C1c2ccccc2C(=O)C1c1ccnc2ccccc12 | 31.6 µM [rising, single point]
61 | CCC(CC)c1nnc(NC(=O)c2ccc(N3CCCC3=O)cc2)s1 | 1.26 µM [falling, partial curve]
62 | COCCCNc1ccnc2c(Cl)cccc12 | 31.6 µM [falling, single point]
63 | O=C1CC(c2cc(F)cc(F)c2)c2cc3c(cc2N1)OCO3 (stereo unspecified) | 10 µM [falling, partial curve, poor fit]
64 | O=C(O)Cn1cc(C(=O)c2ccco2)c2ccccc21 | 20 µM [falling, partial curve, poor fit]
65 | CCOC(=O)CNc1c(-c2ccc(OC)cc2)nc2ccc(Cl)cn12 | 0.00398 µM [falling, full curve, poor fit]
66 | CCc1nnc(NC(=O)C2CC(=O)N(c3ccc(C)cc3)C2)s1 (stereo unspecified) | 0.251 µM [falling, full curve, poor fit]
